The list shows a part of the results. Many values rest on one well or one pass, so single values are uncertain.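 The apoptosis fraction was the count of cleaved-PARP antibody-stained nuclei relative to all DNA-stained nuclei, imaged in 1,536-well plates. Screening doses were set so most cells survived, and baseline and induced cleaved-PARP levels vary greatly across cell lines.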
What follows are molecules tested on MEL-HO (assay: cleaved PARP positive nuclei fraction relative to DMSO control; melanoma cells; higher = more apoptosis). Details: library dose: low library concentration; 72 h.

SMILES	cleaved PARP positive nuclei fraction
COc1ccc(C2=N[C@@H](c3ccc(Cl)cc3)[C@@H](c3ccc(Cl)cc3)N2C(=O)N2CCNC(=O)C2)c(OC(C)C)c1 [Nutlin-3] + CC1(C)NC(=O)N(c2ccc([N+](=O)[O-])c(C(F)(F)F)c2)C1=O [nilutamide] (first compound 0.1 µM, partner dose 1 µM)	35.9%
Cn1cnc2c(F)c(Nc3ccc(Br)cc3Cl)c(C(=O)NOCCO)cc21 [selumetinib] + O=C(CCCCCCC(=O)Nc1ccccc1)NO [vorinostat] (first compound 0.015 µM, partner dose 0.08 µM)	71.8%
COc1ccc(C2=N[C@@H](c3ccc(Cl)cc3)[C@@H](c3ccc(Cl)cc3)N2C(=O)N2CCNC(=O)C2)c(OC(C)C)c1 [Nutlin-3] + Cc1ccc(NC(=O)c2cccc(N(C)C)c2)cc1NC(=O)c1ccc(O)cc1 [ZM336372] (first compound 0.1 µM, partner dose 2 µM)	71.1%
CS(=O)(=O)c1ccc(C(=O)Nc2ccc(Cl)c(-c3ccccn3)c2)c(Cl)c1 [vismodegib] + O=C(O)c1ccc(-c2c[nH]c3ncc(-c4ccccc4)cc23)cc1C1CCCC1 [GSK650394] (first compound 1 µM, partner dose 0.16 µM)	133%
C[C@]1(O)C[C@@H](c2nc(-c3ccc4ccc(-c5ccccc5)nc4c3)c3c(N)nccn32)C1 + CC(C)(C)c1cnc(CSc2cnc(NC(=O)C3CCNCC3)s2)o1 [SNS-032] (first compound 0.4 µM, partner dose 0.01 µM)	77.8%
CC(=O)O[C@@]12CO[C@@H]1C[C@H](O)[C@@]1(C)C(=O)[C@H](O)C3=C(C)[C@@H](OC(=O)[C@H](O)[C@@H](NC(=O)OC(C)(C)C)c4ccccc4)C[C@@](O)([C@@H](OC(=O)c4ccccc4)[C@H]21)C3(C)C [Docetaxel] + COc1cc(Nc2ncc(F)c(Nc3ccc4c(n3)NC(=O)C(C)(C)O4)n2)cc(OC)c1OC [Tamatinib] (first compound 0.0001 µM, partner dose 0.4 µM)	150%
CS(=O)(=O)c1ccc(C(=O)Nc2ccc(Cl)c(-c3ccccn3)c2)c(Cl)c1 [vismodegib] + CO[C@@H]1[C@H](N(C)C(=O)c2ccccc2)C[C@H]2O[C@]1(C)n1c3ccccc3c3c4c(c5c6ccccc6n2c5c31)C(=O)NC4 [Midostaurin] (first compound 1 µM, partner dose 0.08 µM)	549%
CC(=O)O[C@@]12CO[C@@H]1C[C@H](O)[C@@]1(C)C(=O)[C@H](O)C3=C(C)[C@@H](OC(=O)[C@H](O)[C@@H](NC(=O)OC(C)(C)C)c4ccccc4)C[C@@](O)([C@@H](OC(=O)c4ccccc4)[C@H]21)C3(C)C [Docetaxel] + C[C@@H]1CCN(C(=O)CC#N)C[C@@H]1N(C)c1ncnc2[nH]ccc12 [CP690550] (first compound 0.0001 µM, partner dose 1 µM)	83.3%
Cn1cnc2c(F)c(Nc3ccc(Br)cc3Cl)c(C(=O)NOCCO)cc21 [selumetinib] + O=C(Nc1cccc(Cl)c1)Nc1ncc(CCNc2ncnc3ccsc23)s1 [SNS314] (first compound 0.015 µM, partner dose 0.0008 µM)	66.4%
NC(=O)c1ccc(N(C(N)=O)c2c(F)cccc2F)nc1-c1ccc(F)cc1F + OCCn1cc(-c2cnc3nnn(Cc4ccc5ncccc5c4)c3n2)cn1 [PF04217903] (first compound 0.4 µM, partner dose 1 µM)	45.7%
CC1(C)CCC(c2ccc(Cl)cc2)=C(CN2CCN(c3ccc(C(=O)NS(=O)(=O)c4ccc(N[C@H](CCN5CCOCC5)CSc5ccccc5)c(S(=O)(=O)C(F)(F)F)c4)cc3)CC2)C1 + CO[C@@H]1[C@H](N(C)C(=O)c2ccccc2)C[C@H]2O[C@]1(C)n1c3ccccc3c3c4c(c5c6ccccc6n2c5c31)C(=O)NC4 [Midostaurin] (first compound 0.4 µM, partner dose 0.08 µM)	91.7%

Part of the list above, as comma-separated lines:
SMILES,cleaved PARP positive nuclei fraction
"Cn1cnc2c(F)c(Nc3ccc(Br)cc3Cl)c(C(=O)NOCCO)cc21 [selumetinib] + O=C(CCCCCCC(=O)Nc1ccccc1)NO [vorinostat] (first compound 0.015 µM, partner dose 0.08 µM)",71.8%
"CC1(C)CCC(c2ccc(Cl)cc2)=C(CN2CCN(c3ccc(C(=O)NS(=O)(=O)c4ccc(N[C@H](CCN5CCOCC5)CSc5ccccc5)c(S(=O)(=O)C(F)(F)F)c4)cc3)CC2)C1 + CO[C@@H]1[C@H](N(C)C(=O)c2ccccc2)C[C@H]2O[C@]1(C)n1c3ccccc3c3c4c(c5c6ccccc6n2c5c31)C(=O)NC4 [Midostaurin] (first compound 0.4 µM, partner dose 0.08 µM)",91.7%
